Results deposited as PubChem BioAssay AID1259254 (NCATS, 2017)
Purpose: 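Finding genes that stop cells copying their DNA twice in one cycle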 (primary screen). System: human HCT116 colorectal cancer cells. Reagents: single siRNA against human genes. Timing: 3 days. Detection: 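Imaged Hoechst DNA stain sorts each cell into a cycle phase by DNA amount; per plate, G2 fraction set to 0% for non-targeting and 100% for GMNN siRNA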. Scale: G2 robust z-score: higher = more G2 cells, more excess DNA replication. Rule for the call: 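An siRNA counts as active if its G2 robust z-score lies at least 5 MADs above the screen median; here such calls match roughly 38% of GMNN control or more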.
The deposit covers about 59,000 reagents; this is an unselected part. About 1,550 of all reagents (2.6%) were called active. 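G2 share is only a proxy for re-replication; each gene was hit by three separate siRNAs, and active genes were retested.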 Reagents against one gene are numbered here. Not all columns of the deposit are shown. Not given: the amount of reagent.

NSDHL (NAD(P) dependent 3-beta-hydroxysteroid dehydrogenase NSDHL) #1 showed G2 robust z-score 0.579; inactive. NSDHL (NAD(P) dependent 3-beta-hydroxysteroid dehydrogenase NSDHL) #2 gave G2 robust z-score -0.779; inactive. Silencing of NSDHL (NAD(P) dependent 3-beta-hydroxysteroid dehydrogenase NSDHL) #3 resulted in: G2 robust z-score -0.586; inactive. After knock-down of PMS2P10 #1 the results were G2 robust z-score 1.43; inactive. Silencing of PMS2P10 #2 came out at: G2 robust z-score 6.3; active. After knock-down of PMS2P10 #3, the record shows G2 robust z-score -0.494; inactive.

With knock-down of PODXL2 (podocalyxin like 2) #1, the record shows G2 robust z-score -0.701; inactive. For PODXL2 (podocalyxin like 2) #2, the entry reads G2 robust z-score 1.24; inactive. Against PODXL2 (podocalyxin like 2) #3, the entry reads G2 robust z-score 0.346; inactive. PRPF19 (pre-mRNA processing factor 19) #1 scored G2 robust z-score -0.848; inactive. With knock-down of PRPF19 (pre-mRNA processing factor 19) #2, the screen gave G2 robust z-score -0.0626; inactive. After knock-down of PRPF19 (pre-mRNA processing factor 19) #3, the screen gave G2 robust z-score 1.74; inactive.

With knock-down of C8orf58 (chromosome 8 open reading frame 58) #1 the results were G2 robust z-score 1.24; inactive. With knock-down of C8orf58 (chromosome 8 open reading frame 58) #2, the record shows G2 robust z-score -1.13; inactive. Against C8orf58 (chromosome 8 open reading frame 58) #3 the deposit lists G2 robust z-score 0.387; inactive. With knock-down of LHFPL3 (LHFPL tetraspan subfamily member 3) #1 the results were G2 robust z-score 0.643; inactive. Against LHFPL3 (LHFPL tetraspan subfamily member 3) #2, the values are G2 robust z-score 2.04; inactive. Depletion of LHFPL3 (LHFPL tetraspan subfamily member 3) #3 gave: G2 robust z-score 6.27; active.

Copied from the listing for reference:
C8orf58 (chromosome 8 open reading frame 58) #2: G2 robust z-score = -1.13; Call = inactive
C8orf58 (chromosome 8 open reading frame 58) #3: G2 robust z-score = 0.387; Call = inactive
LHFPL3 (LHFPL tetraspan subfamily member 3) #1: G2 robust z-score = 0.643; Call = inactive
